Results: PubChem BioAssay AID504467 (National Center for Advancing Translational Sciences (NCATS), 2011)
About 7,700 (2.3%) of roughly 330,000 compounds were called active. The shares of active, inactive and inconclusive entries below differ from those in the screen. The call rests on the fitted dose curve; in most records, active means well fitted inhibition curve with a large enough effect; inconclusive means small, poorly fitted or top-dose-only effect, or effect the other way; inactive means flat fitted curve, though single readings scatter. Potencies beside an inconclusive call are fits to weak or partial responses and may not hold up.

assay: qHTS screen for small molecules that inhibit ELG1-dependent DNA repair in human embryonic kidney (HEK293T) cells expressing luciferase-tagged ELG1; details: HEK293T ELG1-luciferase reporter, luminescence, 16 h, DNA damage induced by 5-fluorouridine; activity change, negative = inhibition: at 46.1 µM (top of the series); further: nearly all actives have a fitted effect of over 55% in size
Summary of the method: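 Overnight (16 hr) co-exposure of 2,000 cells/well to 5-fluorouridine and compound at 37 °C preceded detection. Luciferase was quantified via ONE-Glo luminescence; loss of signal denotes inhibition.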
On the % scale 0 is the no-effect control and ±100 the full control effect; potency means the concentration at half of the fitted maximal effect.

SMILES | Potency | activity change, negative = inhibition
O=C(Nc1ccc2c(c1)oc1ccccc12)c1ccc(Br)o1 | inconclusive: 14.6 µM [activator, partial curve] | 
C#CCn1c(=NC(=O)c2sc3ccccc3c2Cl)sc2cc(S(N)(=O)=O)ccc21 | inactive | 
CC(C)(C)OC(=O)N1CCC[C@H]1c1nnc(SCc2cccc(Cl)c2)o1 | inconclusive: 14.6 µM [inhibitor, single point] | 
Cc1ccc(C2Nc3ccccc3-c3nc4ccccc4n32)o1 (stereo not given) | inconclusive: 3.66 µM [activator, single point] | 
Cn1cc(C(=O)Nc2ccc3c(c2)CCC3)cn1 | inconclusive: 20.6 µM [activator, partial curve] | 
Cc1noc(C)c1NC(=O)N(C)C[C@@H]1Oc2ccc(NS(=O)(=O)c3c(C)noc3C)cc2C(=O)N([C@H](C)CO)C[C@H]1C | inactive | 
O=C(NCCC(=O)N1CCNC1=O)OCc1ccccc1 | inconclusive: 25.9 µM [inhibitor, single point] | 
O=C(Nc1cccnc1)c1cc(-c2ccc(Br)cc2)on1 | inconclusive: 18.4 µM [activator, partial curve] | 
CCOc1ccc(S(=O)(=O)N(CC(=O)NCc2cccnc2)c2ccc(F)cc2)cc1 | inconclusive: 16.4 µM [inhibitor, partial curve] | 
CCOC(=O)C1CCN(C(=O)C(C)Oc2ccc(C(=O)c3ccccc3)cc2)CC1 (stereo not given) | inconclusive: 14.6 µM [inhibitor, partial curve] | 
COc1ccccc1Cn1c(=S)[nH]c2ccc(Br)cc2c1=O | inactive | 
Cc1cc(O)c(C(=O)Cc2csc(C)n2)c(O)c1 | inconclusive: 18.3 µM [activator, partial curve] | 
CN(C)CCN(C(=O)c1ccc2c(c1)CCCC2)c1nc2cc3c(cc2s1)OCCO3 | inconclusive: 10.3 µM [activator, partial curve] | 
O=C(CNC(=S)N(Cc1ccccc1)Cc1ccccc1F)NCc1ccc(Cl)cc1 | active: 23.1 µM | 
Cc1cccc2cc(C#N)c(N3CCN(C)CC3)nc12 | inactive | 
O=C(CCN1C(=O)/C(=C/c2ccc(F)cc2)SC1=S)Nc1cc([N+](=O)[O-])ccc1O | inactive | 
Cc1ccc(NC(=O)C2CCCN(S(=O)(=O)c3c(C)noc3C)C2)nc1 (stereo not given) | inconclusive: 20.6 µM [inhibitor, single point] | 
C=CCNc1cnn(-c2ccccc2)c(=O)c1Cl | inconclusive: 18.3 µM [activator, single point] | 
COC(=O)C(C)Oc1ccc(Cc2ncc(C(F)(F)F)cc2Cl)cc1 (stereo not given) | inactive | 
COc1ccc(S(=O)(=O)NCc2ccc(C(=O)NCCCN3CC(C)CC(C)C3)cc2)cc1 (stereo not given) | inactive | 
O=C1CC(c2cccc([N+](=O)[O-])c2)c2cc3c(cc2N1)CCC3 (stereo not given) | active: 16.4 µM | 
Cc1c(Cl)ccc2c(C(=O)NC(C)c3ccncc3)cc(-c3ccncc3)nc12 (stereo not given) | inconclusive: 20.6 µM [inhibitor, single point] | 
Nc1ccc2nc(-c3cccs3)[nH]c2c1 | inconclusive: 14.6 µM [activator, partial curve] | 
Cc1oc(-c2ccc(F)cc2)nc1CN1CCCC(C(=O)N2CCOCC2)C1 (stereo not given) | inactive | 

Whole records, looked up by structure.
CCOC(=O)C1CCN(C(=O)C(C)Oc2ccc(C(=O)c3ccccc3)cc2)CC1 (stereo not given) reads Potency: inconclusive: 14.6 µM [inhibitor, partial curve]
O=C(CNC(=S)N(Cc1ccccc1)Cc1ccccc1F)NCc1ccc(Cl)cc1 reads Potency: active: 23.1 µM
C=CCNc1cnn(-c2ccccc2)c(=O)c1Cl reads Potency: inconclusive: 18.3 µM [activator, single point]

(next part)

SMILES | Potency | activity change, negative = inhibition
CC1CCCCC1NC(=O)c1ccc(S(=O)(=O)N2CCN(C)CC2)cc1 (stereo not given) | inactive | 
COCc1ccc(C(=O)Nc2cccc(S(=O)(=O)N(C)c3ccccc3)c2)cc1 | active: 18.3 µM | 
COc1ccccc1NC(=O)CN1CCN(CC(=O)Nc2cc(C)ccc2OC)CC1 | inconclusive: 2.91 µM [inhibitor, partial curve] | 
COC(=O)c1cc(COc2ccc3oc(C)c(C(=O)OC)c3c2)c(C)o1 | inconclusive: 18.4 µM [inhibitor, single point] | 
O=C(NC(=S)Nc1nc(-c2ccccc2)cs1)c1cccs1 | inconclusive: 5.17 µM [activator, partial curve] | 
CC1CCCN(S(=O)(=O)c2ccc(NC(=O)CN3C(=O)NC(C)(c4ccccc4)C3=O)cc2)C1 (stereo not given) | inactive | 
CCOC(=O)Cc1nnc2c(Nc3ccc(Cl)cc3)nc3nonc3n12 | inconclusive: 2.06 µM [inhibitor, partial curve, poor fit] | 
CC1=C(C(=O)OCCNC(=O)c2ccccc2O)C(c2ccccc2[N+](=O)[O-])C(C(=O)OCC2CCCO2)=C(C)N1 (stereo not given) | inconclusive: 16.4 µM [inhibitor, single point] | 
CC1=CN2C(=N)/C(=C\c3cn(CCCOc4ccccc4)c4ccccc34)C(=O)N=C2S1 | inconclusive: 0.326 µM [inhibitor, partial curve, poor fit] | 
COC(=O)c1ccccc1S(=O)(=O)N1CCC(C(=O)OCC(=O)c2ccccc2OC)CC1 | inconclusive: 29.1 µM [inhibitor, single point] | 
CCOC(=O)c1c(C)[nH]c(C)c1C(=O)COC(=O)c1cc(OC)c(OC)cc1OC | inconclusive: 29.1 µM [inhibitor, single point] | 
CCCN1C(=S)c2ccccc2C1c1ccccc1 (stereo not given) | inconclusive: 20.6 µM [inhibitor, single point] | 
N#Cc1cc2sc3nnc(-c4ccncc4)n3c2cc1C#N | inconclusive: 25.9 µM [inhibitor, single point] | 
Brc1cccc(Cn2c(-c3cncs3)nc3ccccc32)c1 | inactive | 
COc1cccc(C(=O)Nc2cc(C)nn2-c2ccccc2)c1OC | inactive | 
CCCn1c(SCC(=O)N2c3ccc(F)cc3CCC2C)nnc1-c1ccccn1 (stereo not given) | inconclusive: 14.6 µM [inhibitor, partial curve, poor fit] | 
COc1ccc(OCc2nnc(SCC(=O)NC3CC3)n2C)cc1 | inactive | 
CN(C)c1ccc(N=Nc2ccc(S(=O)(=O)O)cc2)c2ccccc12 | inactive | 
CCCN(CC1CC1)C(=O)CSc1nnc(-c2cc(-c3cccs3)nc3ccccc23)o1 | active: 9.2 µM | 
COc1ccc(NC(=O)CN(c2cc(C)cc(C)c2)S(=O)(=O)c2c(C)noc2C)cc1OC | inconclusive: 29.1 µM [inhibitor, single point] | 
COc1cccc(NC(=O)CN(C)C(=O)CNC(=O)c2sc3ccccc3c2Cl)c1 | inactive | 
CC(C)Cc1ccc(C(C)C(=O)OCC(=O)c2c[nH]c3ccccc23)cc1 (stereo not given) | inconclusive: 29.1 µM [activator, partial curve, poor fit] | 
CCOc1cc(/C=N/Nc2nc3ccccc3[nH]2)cc(Br)c1OCC(=O)N(C)C | active: 23.1 µM | 
CN(C)CCNC(=O)c1cc2c(=O)n(C)c3ccccc3c2n1C | inactive | 

SMILES | Potency | activity change, negative = inhibition
COc1ccc(Cl)cc1N/C(N)=N/c1nc(C)cc(C)n1 | inconclusive: 20.6 µM [inhibitor, partial curve] | 
CC(=O)Nc1ccc(Oc2nc(-c3ccccn3)nc3ccccc23)cc1 | inconclusive: 29.1 µM [inhibitor, single point] | 
COc1ccc(-n2c(=S)[nH]c3cc(C(=O)Nc4ccc(C)c(F)c4)ccc3c2=O)c(OC)c1 | inconclusive: 25.9 µM [inhibitor, single point] | 
CN(C)S(=O)(=O)c1cccc(NC(=O)c2ccc(N3CCCC3=O)cc2)c1 | inconclusive: 8.2 µM [activator, partial curve, poor fit] | 
O=C(CSc1ccccn1)N/N=C/c1cc([N+](=O)[O-])ccc1O | active: 16.4 µM | 
CN1CCN(C(=O)c2cccc(S(=O)(=O)N3CCCCC3)c2)CC1 | inactive | 
COc1ccc(N2CCN(C(=O)c3ccc(NS(=O)(=O)c4cccs4)cc3)CC2)cc1 | inconclusive: 29.1 µM [inhibitor, single point] | 
CCC(C)n1c(C)nc2c(c1=O)c1nc3ccccc3nc1n2-c1ccc2c(c1)OCCO2 (stereo not given) |  | inconclusive: 43.6% [activator]
CC(=O)Oc1cc2cccc(OC(C)=O)c(=O)c2c(OC(C)=O)c1OC(C)=O | inactive | 
O=[N+]([O-])c1ccc(OC/C=C2\Oc3ccc([N+](=O)[O-])cc3C2N2CCOCC2)cc1 (stereo not given) | inconclusive: 20.6 µM [inhibitor, single point] | 
CCOC(=O)c1cnc(-n2nc(C)cc2C)nc1NNc1cc(-c2ccccc2)nc(C)n1 | inconclusive: 6.51 µM [inhibitor, partial curve, poor fit] | 
Cc1cccc(COCCN2CCN(S(=O)(=O)c3ccccc3)CCC2=O)c1 | inactive | 
Cc1ccc2nc(SCc3nc4c(cnn4-c4ccccc4)c(=O)[nH]3)[nH]c2c1 | inactive | 
Cc1ccccc1OCc1nc2ccc(S(=O)(=O)N3CCOCC3)cc2[nH]1 | inconclusive: 25.9 µM [inhibitor, single point] | 
Cc1cccc(CCNC(=O)c2cccc(N3CCCC3=O)c2)c1 | inconclusive: 7.3 µM [activator, partial curve] | 
Nc1cc(=O)nc(SCC(=O)Nc2cccc3ccccc23)n1CCc1ccccc1 | inactive | 
Cn1c(N)nc2ccccc2c1=O | inconclusive: 29.1 µM [activator, partial curve, poor fit] | 
Oc1ccc(CNc2ccccc2F)c2cccnc12 | inconclusive: 32.6 µM [inhibitor, partial curve, poor fit] | 
CCCCNC(=O)N(O)C1N(CCCC)C(=O)N(CC(=O)OC)C1(C)C (stereo not given) | inconclusive: 18.4 µM [activator, single point] | 
O=C(OCC(=O)N1CCC(Cc2ccccc2)CC1)c1cccnc1Cl | inactive | 
COc1ccc(C2SCC(=O)N2CCc2ccc(OC)c(OC)c2)cc1 (stereo not given) | active: 18.3 µM | 
CCCc1cc(C(=O)N/N=C/c2ccc(CC)s2)c2ccccc2n1 | inconclusive: 28.2 µM [inhibitor, partial curve, poor fit] | 
